Our source for the binding values is paper PMC9645710, “Cryo-EM structures of peripherin-2 and ROM1 suggest multiple roles in photoreceptor membrane morphogenesis” (Science Advances, 2022).

Protein sequences, listed by entry. Tags and fused reporters are not part of them. Lines headed by an entry give the natural chain unless they say otherwise; changes in a name come on top.
UniProt P23942: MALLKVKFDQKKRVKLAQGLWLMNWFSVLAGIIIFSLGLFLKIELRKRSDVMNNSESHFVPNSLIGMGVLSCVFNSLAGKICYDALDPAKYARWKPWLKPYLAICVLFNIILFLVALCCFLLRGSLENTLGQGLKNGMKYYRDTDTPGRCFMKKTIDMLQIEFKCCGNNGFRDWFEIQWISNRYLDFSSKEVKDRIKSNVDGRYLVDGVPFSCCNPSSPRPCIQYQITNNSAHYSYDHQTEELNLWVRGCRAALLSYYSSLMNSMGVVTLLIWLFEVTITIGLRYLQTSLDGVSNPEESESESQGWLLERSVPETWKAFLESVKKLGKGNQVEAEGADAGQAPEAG
UniProt Q03395: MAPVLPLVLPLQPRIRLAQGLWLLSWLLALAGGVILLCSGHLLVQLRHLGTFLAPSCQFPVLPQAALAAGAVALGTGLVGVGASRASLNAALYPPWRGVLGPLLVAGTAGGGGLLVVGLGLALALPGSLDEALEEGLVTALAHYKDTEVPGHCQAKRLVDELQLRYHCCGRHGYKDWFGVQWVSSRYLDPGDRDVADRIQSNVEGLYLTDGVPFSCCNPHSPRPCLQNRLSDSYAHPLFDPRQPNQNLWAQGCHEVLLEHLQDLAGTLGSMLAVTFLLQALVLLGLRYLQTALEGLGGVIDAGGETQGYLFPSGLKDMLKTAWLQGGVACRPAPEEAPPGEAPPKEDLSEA

In the test the target is PRPH2-ROM1 heterodimer (wild-type PRPH2 and ROM1) (human) (UniProt P23942+Q03395). The test can be described thus: SEC; as a3, with dithiothreitol added; both purified. On the technique in general: In gel filtration, larger molecules generally elute earlier.

No constants are given. Whether binding was seen depends on the method and setting.

“PRPH2-ROM1 heterodimer (wild-type PRPH2 and ROM1) (from UniProt P23942 1-346; Q03395 1-351) (complex)”: the binding entry is given as “no binding (condition: with dithiothreitol)”.
